# Experimental data from PubChem BioAssay (EPA / NIEHS).
# Chains of the proteins cited; added tags and fusions are not shown. Lines headed by an entry give the natural chain unless they say otherwise; changes in a name come on top.
# UniProt P06212, whole entry, looked up: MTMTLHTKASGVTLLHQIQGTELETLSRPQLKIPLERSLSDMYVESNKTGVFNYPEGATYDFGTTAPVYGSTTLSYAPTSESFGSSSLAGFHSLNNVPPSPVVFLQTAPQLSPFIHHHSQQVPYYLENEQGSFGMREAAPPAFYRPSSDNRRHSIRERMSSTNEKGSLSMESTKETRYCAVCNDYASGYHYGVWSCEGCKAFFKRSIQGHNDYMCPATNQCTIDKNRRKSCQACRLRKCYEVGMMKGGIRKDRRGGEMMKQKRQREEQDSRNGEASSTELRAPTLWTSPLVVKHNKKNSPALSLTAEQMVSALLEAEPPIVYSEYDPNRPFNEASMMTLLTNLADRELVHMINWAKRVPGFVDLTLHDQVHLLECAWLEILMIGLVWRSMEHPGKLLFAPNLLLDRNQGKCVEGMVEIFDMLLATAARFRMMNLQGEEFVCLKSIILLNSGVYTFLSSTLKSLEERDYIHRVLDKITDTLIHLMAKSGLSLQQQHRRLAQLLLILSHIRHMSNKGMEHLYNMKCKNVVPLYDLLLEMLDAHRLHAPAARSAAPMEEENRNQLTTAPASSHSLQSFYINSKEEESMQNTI
# UniProt P15204: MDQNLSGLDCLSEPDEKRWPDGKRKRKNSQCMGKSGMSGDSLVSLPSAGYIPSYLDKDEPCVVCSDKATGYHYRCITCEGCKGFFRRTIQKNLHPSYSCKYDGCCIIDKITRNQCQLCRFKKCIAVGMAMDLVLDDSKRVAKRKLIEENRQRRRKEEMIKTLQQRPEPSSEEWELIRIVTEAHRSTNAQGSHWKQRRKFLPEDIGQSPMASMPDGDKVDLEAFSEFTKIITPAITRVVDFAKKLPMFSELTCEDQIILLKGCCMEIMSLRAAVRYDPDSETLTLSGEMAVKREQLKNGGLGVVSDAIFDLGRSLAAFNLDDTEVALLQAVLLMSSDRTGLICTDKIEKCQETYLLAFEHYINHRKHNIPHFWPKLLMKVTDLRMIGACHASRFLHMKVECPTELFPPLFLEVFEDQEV
# UniProt P10828: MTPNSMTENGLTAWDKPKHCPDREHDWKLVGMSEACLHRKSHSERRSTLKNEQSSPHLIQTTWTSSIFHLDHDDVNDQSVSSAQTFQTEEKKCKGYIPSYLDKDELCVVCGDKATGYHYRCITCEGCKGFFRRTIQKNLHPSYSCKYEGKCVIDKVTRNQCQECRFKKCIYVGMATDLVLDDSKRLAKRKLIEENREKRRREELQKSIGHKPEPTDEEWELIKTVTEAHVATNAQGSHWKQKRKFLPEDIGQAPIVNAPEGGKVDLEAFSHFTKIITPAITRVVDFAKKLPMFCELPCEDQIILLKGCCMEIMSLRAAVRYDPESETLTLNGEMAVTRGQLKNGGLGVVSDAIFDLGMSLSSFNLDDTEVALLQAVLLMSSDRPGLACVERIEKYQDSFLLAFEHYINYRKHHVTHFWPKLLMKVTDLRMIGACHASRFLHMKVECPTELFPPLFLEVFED
# UniProt Q9PVE4: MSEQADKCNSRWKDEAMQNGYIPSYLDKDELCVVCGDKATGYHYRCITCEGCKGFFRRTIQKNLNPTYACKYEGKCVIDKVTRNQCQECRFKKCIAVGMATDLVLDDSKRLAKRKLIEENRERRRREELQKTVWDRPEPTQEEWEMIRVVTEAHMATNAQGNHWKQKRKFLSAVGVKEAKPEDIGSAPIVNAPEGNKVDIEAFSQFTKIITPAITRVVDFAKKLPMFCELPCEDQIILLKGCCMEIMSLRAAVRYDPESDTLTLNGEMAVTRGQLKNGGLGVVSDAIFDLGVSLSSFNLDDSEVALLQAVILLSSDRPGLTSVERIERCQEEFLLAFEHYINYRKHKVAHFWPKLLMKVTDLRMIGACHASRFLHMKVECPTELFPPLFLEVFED
# UniProt Q92731, whole entry, looked up: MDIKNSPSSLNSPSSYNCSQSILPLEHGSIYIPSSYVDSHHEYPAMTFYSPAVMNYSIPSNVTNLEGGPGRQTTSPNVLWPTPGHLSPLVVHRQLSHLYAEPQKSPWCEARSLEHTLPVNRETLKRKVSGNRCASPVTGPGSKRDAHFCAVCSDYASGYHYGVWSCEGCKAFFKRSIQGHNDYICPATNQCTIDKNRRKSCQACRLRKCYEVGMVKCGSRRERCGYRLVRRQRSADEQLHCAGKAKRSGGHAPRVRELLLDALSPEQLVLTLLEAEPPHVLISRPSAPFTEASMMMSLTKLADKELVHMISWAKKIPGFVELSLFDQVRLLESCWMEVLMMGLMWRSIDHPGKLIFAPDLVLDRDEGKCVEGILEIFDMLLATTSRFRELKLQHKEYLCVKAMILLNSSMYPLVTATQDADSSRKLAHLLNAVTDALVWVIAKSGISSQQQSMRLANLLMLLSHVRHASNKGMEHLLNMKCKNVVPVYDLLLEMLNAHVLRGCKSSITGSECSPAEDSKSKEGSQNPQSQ
# UniProt P31751: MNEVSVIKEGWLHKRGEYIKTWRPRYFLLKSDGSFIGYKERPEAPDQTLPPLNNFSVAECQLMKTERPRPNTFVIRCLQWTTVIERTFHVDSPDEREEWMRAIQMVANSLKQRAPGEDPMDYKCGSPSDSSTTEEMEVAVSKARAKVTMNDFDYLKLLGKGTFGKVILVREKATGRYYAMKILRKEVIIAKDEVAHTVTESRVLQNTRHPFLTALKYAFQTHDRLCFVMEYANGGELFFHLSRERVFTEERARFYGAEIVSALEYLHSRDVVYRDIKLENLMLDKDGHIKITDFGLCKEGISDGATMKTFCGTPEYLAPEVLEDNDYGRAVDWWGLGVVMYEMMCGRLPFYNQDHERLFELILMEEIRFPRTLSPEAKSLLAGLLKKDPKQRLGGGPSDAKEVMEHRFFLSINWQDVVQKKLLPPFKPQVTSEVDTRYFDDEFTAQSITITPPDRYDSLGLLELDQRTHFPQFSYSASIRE
# UniProt P28827, whole entry, looked up: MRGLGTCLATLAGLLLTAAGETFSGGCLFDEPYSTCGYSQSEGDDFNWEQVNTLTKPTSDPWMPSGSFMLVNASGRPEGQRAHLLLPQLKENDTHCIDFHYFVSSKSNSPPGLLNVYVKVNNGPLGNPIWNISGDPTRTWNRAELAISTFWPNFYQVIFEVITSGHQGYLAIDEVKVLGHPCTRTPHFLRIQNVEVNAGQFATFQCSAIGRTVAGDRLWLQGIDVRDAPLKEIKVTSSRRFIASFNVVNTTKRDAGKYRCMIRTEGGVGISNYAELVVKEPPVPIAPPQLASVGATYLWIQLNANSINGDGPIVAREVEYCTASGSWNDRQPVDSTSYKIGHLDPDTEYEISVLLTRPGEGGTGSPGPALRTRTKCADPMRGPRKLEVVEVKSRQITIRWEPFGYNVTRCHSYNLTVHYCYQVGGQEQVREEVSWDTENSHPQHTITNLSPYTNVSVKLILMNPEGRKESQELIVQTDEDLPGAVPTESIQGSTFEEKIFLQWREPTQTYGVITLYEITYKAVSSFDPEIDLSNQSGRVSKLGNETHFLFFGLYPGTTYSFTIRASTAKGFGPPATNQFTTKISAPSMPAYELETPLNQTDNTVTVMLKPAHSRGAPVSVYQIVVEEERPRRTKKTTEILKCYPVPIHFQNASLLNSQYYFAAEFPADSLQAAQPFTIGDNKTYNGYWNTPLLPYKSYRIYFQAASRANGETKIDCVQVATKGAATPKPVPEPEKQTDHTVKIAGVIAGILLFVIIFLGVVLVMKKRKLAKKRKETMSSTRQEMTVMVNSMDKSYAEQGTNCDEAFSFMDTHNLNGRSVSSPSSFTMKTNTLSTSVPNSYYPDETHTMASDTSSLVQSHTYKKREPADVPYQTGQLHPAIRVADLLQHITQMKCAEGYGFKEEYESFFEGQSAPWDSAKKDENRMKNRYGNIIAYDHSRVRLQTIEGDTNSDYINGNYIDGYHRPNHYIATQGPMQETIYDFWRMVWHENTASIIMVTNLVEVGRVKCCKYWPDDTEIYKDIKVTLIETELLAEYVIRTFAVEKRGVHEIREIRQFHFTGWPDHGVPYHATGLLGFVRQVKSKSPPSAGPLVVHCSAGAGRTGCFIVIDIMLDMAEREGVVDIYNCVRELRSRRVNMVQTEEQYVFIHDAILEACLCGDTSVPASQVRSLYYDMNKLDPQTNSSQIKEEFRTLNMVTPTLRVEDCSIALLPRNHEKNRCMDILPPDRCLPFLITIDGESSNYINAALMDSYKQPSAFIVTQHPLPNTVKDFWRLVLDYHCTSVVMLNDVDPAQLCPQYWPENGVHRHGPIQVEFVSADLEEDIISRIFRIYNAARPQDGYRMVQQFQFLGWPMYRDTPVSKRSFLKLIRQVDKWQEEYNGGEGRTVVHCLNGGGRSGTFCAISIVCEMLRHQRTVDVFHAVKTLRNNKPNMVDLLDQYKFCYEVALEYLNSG
# UniProt Q96RI1: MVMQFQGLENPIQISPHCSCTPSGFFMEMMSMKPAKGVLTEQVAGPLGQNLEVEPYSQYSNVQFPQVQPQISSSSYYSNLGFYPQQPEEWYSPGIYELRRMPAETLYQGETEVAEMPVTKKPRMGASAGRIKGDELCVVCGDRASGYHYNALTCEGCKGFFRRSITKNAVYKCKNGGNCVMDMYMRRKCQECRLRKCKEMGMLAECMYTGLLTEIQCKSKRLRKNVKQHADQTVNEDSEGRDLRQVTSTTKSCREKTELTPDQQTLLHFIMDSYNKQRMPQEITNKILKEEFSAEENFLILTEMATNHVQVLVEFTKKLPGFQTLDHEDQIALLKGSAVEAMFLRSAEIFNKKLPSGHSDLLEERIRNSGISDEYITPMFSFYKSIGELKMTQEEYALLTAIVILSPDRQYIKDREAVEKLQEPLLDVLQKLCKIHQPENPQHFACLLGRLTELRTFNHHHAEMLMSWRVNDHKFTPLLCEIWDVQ
# UniProt P08219: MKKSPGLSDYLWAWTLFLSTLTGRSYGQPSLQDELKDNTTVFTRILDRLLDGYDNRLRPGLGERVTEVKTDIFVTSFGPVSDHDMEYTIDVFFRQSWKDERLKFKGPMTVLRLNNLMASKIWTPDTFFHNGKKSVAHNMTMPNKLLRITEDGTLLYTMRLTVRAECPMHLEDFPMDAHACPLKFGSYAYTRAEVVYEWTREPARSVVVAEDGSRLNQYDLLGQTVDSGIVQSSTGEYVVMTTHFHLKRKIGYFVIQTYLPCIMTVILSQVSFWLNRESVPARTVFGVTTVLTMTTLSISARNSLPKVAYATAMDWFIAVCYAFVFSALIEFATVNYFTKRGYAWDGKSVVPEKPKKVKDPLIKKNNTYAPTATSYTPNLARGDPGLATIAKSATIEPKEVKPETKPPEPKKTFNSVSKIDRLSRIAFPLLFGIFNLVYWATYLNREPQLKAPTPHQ
# UniProt P08684, whole entry, looked up: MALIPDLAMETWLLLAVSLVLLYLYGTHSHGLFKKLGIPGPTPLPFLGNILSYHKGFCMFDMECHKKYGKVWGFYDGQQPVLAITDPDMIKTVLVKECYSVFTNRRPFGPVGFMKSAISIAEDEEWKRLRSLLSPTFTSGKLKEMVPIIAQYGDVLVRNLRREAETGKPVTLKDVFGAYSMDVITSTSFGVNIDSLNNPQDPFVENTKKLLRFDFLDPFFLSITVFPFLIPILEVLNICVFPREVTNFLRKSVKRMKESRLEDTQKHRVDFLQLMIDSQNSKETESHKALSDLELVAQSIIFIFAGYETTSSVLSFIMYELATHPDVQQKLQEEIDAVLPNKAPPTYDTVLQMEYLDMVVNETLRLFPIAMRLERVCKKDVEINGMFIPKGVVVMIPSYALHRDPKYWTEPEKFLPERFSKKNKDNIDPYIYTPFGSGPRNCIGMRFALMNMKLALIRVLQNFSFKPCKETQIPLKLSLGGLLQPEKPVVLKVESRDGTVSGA
# UniProt Q98867: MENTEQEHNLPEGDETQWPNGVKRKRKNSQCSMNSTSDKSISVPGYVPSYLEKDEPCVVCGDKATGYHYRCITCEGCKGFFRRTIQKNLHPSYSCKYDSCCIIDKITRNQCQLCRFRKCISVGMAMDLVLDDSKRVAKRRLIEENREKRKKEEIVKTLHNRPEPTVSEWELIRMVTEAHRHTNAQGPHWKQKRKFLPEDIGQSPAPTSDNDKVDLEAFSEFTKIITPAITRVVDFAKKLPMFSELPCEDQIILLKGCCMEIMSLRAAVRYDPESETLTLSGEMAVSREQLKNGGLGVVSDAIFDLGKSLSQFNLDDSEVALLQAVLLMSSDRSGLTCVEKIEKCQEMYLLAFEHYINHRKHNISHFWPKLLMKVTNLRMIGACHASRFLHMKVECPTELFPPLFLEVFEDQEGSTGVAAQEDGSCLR
# This list was built around the results that the source calls inconclusive (neither active nor inactive); the mix of calls is not that of the screen. A potency beside an inconclusive call is a rough fit, not a confirmed value. Some structures have more than one record in an assay (separate samples or runs), and their calls can disagree. The source made the active and inactive calls. How the source made its calls: active means hit-call score of the fitted dose curve at least 0.9, where 1 is the maximum; inconclusive means response in the unintended direction; inactive means score below 0.9.
# Columns and labels:
# [1] = biological target: chicken Estrogen Receptor (ESR1), ESR1 (gene 396099) (UniProt P06212); test: ATG_chERa_XSP1: Attagene TRANS-FACTORIAL Multi-Species (XSP1) HepG2 Assay for chicken Estrogen Receptor (ESR1) (AID 2283779)
# Method in brief: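 Human liver HepG2, transient MRTU transfection (NR-Gal4 chimeras, GAL4-UAS reporters); 24 h compound exposure; 3 nM 6-alpha-fluorotestosterone in medium. Total RNA → RT-PCR → 6-FAM primer extension → HpaI → CE. Positive direction vs DMSO baseline.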
# [2] = biological target: frog Thyroid hormone Receptor alpha (TRa), thra-a (gene 397942) (UniProt P15204); test: ATG_frTRa_XSP1: Attagene TRANS-FACTORIAL Multi-Species (XSP1) HepG2 Assay for frog Thyroid hormone Receptor alpha (TRa) (AID 2283804)
# Method in brief: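 HepG2 cells transiently transfected with frog TRa-GAL4 chimeric reporter units, dosed 24 hr with 3 nM 6-alpha-fluorotestosterone present; reporter mRNA quantified by RT-PCR, fluorescent labelling and capillary electrophoresis, gain of signal versus DMSO.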
# [3] = tested on: turtle Thyroid Hormone Receptor, alpha (TRa), gene 101949057; test: ATG_trTRa_XSP1: Attagene TRANS-FACTORIAL Multi-Species (XSP1) HepG2 Assay for turtle Thyroid Hormone Receptor, alpha (TRa) (AID 2283806)
# Method in brief: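 HepG2 cells transiently transfected with GAL4-UAS reporter units and chimeric receptor-Gal4 constructs, with 3 nM 6-alpha-fluorotestosterone present. Reporter mRNA was quantified 24 h after dosing by RT-PCR, 6-FAM labelling and capillary electrophoresis; gain of signal versus DMSO.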
# [4] = biological target: human Thyroid hormone Receptor beta (TRb), THRB (gene 7068) (UniProt P10828); test: ATG_hTRb_XSP1: Attagene TRANS-FACTORIAL Multi-Species (XSP1) HepG2 Assay for human Thyroid hormone Receptor beta (TRb) (AID 2283808)
# Method in brief: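 HepG2 cells transiently transfected with reporter units driving GAL4-UAS reporters for chimeric NR-Gal4 proteins; 24 h chemical exposure with 3 nM 6-alpha-fluorotestosterone present. Reporter mRNA quantified by RT-PCR and capillary electrophoresis, gain of signal versus DMSO.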
# [5] = biological target: zebrafish Thyroid Hormone Receptor beta (TRb), thrb (gene 30607) (UniProt Q9PVE4); test: ATG_zfTRb_XSP1: Attagene TRANS-FACTORIAL Multi-Species (XSP1) HepG2 Assay for zebrafish Thyroid Hormone Receptor beta (TRb) (AID 2283809)
# Method in brief: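 HepG2 cells transiently transfected with multiplexed GAL4-UAS reporter units expressing chimeric zebrafish TRb–Gal4. Dosed 24 h with 3 nM 6-alpha-fluorotestosterone present; reporter mRNA measured by RT-PCR, HpaI digestion and capillary electrophoresis; gain of signal versus DMSO.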
# [6] = biological target: Estrogen receptor beta (Homo sapiens) (UniProt Q92731); test: ATG_hERb_XSP2: Attagene TRANS-FACTORIAL Multi-Species (XSP2) HepG2 Assay for human Estrogen Receptor (ERb) (AID 2283813);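 further: actives raise reporter mRNA above DMSO so AC50 reflects agonist induction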
# Method in brief: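 HepG2 cells transiently transfected with GAL4-UAS reporter units and chimeric human ERb-Gal4, 24 h exposure. Reporter mRNA quantified by RT-PCR with FAM labelling, HpaI digestion and capillary electrophoresis; gain of signal versus DMSO.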
# [7] = biological target: zebrafish Thyroid Hormone Receptor beta (TRb), thrb (gene 30607) (UniProt Q9PVE4); test: ATG_zfTRb_XSP2: Attagene TRANS-FACTORIAL Multi-Species (XSP1) HepG2 Assay for zebrafish Thyroid Hormone Receptor beta (TRb) (AID 2283836);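 on AC50: potency for induction of reporter signal above DMSO so agonist direction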
# Method in brief: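 Fluorescence of labelled reporter cDNA fragments, separated by capillary electrophoresis, gives mRNA induction from exogenous NR-Gal4 chimeras in transiently transfected HepG2 cells after 24 h dosing; 3 nM 6-alpha-fluorotestosterone and 1.5 nM norgestrel included in the run.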
# [8] = biological target: human AKT serine/threonine Kinase 2 (AKT2), AKT2 (gene 208) (UniProt P31751); test: NVS_ENZ_hAKT2: NovaScreen (NVS) Enzymatic Assay for human AKT serine/threonine Kinase 2 (AKT2) (AID 2283141)
# Method in brief: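 Cell-free fluorescence/electrophoretic mobility shift readout of recombinant human AKT2 activity, 1 h after chemical dosing. Duplicate primary screen at 25 uM, then singleton concentration-response up to 50 uM; loss of signal versus DMSO baseline.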
# [9] = biological target: human Protein Tyrosine Phosphatase Receptor Type M (PTPRM), PTPRM (gene 5797) (UniProt P28827); test: NVS_ENZ_hPTPRM: NovaScreen (NVS) Enzymatic Assay for human Protein Tyrosine Phosphatase Receptor Type M (PTPRM) (AID 2283215)
# Method in brief: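 Cell-free recombinant PTPRM with fluorogenic substrate; product separated from substrate by electrophoretic mobility shift and read by fluorescence, 1.33 h after dosing. Primary screen single concentration (25 uM) in duplicate; actives retested in concentration series; loss of signal versus DMSO.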
# [10] = biological target: Bile acid receptor (Homo sapiens) (UniProt Q96RI1); test: NVS_NR_hFXR_Agonist: NovaScreen (NVS) Nuclear Receptor Binding Assay for human Farnesoid X Receptor Agonism (FXR) (AID 2283347)
# Method in brief: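 Cell-free TR-FRET binding assay with extracted human FXR protein, agonist format, read 1 h after dosing. Primary screen at 25 uM single concentration in duplicate, actives retested in concentration series; gain of signal versus DMSO.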
# [11] = biological target: human Protein Tyrosine Phosphatase Receptor Type B (PTPRB), PTPRB (gene 5787) (UniProt P23467); test: NVS_ENZ_hPTPRB: NovaScreen (NVS) Enzymatic Assay for human Protein Tyrosine Phosphatase Receptor Type B (PTPRB) (AID 2283211)
# Method in brief: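 Recombinant human PTPRB with a fluorescent substrate, product separated by electrophoretic mobility shift; read 1 h after dosing. Primary screen in duplicate at 25 uM; actives then retested in concentration series; loss of signal versus DMSO.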
# [12] = biological target: human Neurotensin Receptor (NTS), NTSR1 (gene 4923) (UniProt P30989); test: NVS_GPCR_hNTS: NovaScreen (NVS) G Protein-Coupled Receptor Assay for human Neurotensin Receptor (NTS) (AID 2283279)
# Method in brief: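 Radioligand displacement on human NTSR1 protein from CHO cells, cell-free, 1 h, filter-based scintillation counting. Primary screen at 25 uM in duplicate; hits rerun in concentration-response up to 50 uM.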
# [13] = biological target: bovine Gamma-Aminobutyric Acid Type A Receptor Agonist (GABAR Agonist), GABRA1 (gene 780973) (UniProt P08219); test: NVS_LGIC_bGABAR_Agonist: NovaScreen (NVS) Ligand-Gated Ion Channel Assay for bovine Gamma-Aminobutyric Acid Type A Receptor Agonist (GABAR Agonist) (AID 2283338)
# Method in brief: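 Radioligand binding to bovine cerebellar membranes in agonist format, read by filter-based scintillation counting after 1 h. Primary screen in duplicate at 25 uM, with actives followed in concentration series. Gain of signal versus DMSO.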
# [14] = read-out: Cytochrome P450 3A4 (Homo sapiens) (UniProt P08684); test: CLD_CYP3A4_6hr: CellzDirect (CLD) Gene Expression Assay for xenobiotic metabolism (CYP3A4) at 6 hours (AID 2283680)
# Method in brief: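 Primary human hepatocytes (two donor preparations) dosed; CYP3A4 mRNA harvested at 6 h and quantified by qNPA chemiluminescence. Gain of signal fitted against 0.2% DMSO vehicle; cytotoxicity flagged by phase-contrast morphology.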
# [15] = CCTE_Deisenroth_AIME_96WELL_CTox_Active: Cytotoxicity Assessment (CTOX) in CCTE's 96-well Estrogen Receptor Transactivation Assay with AIME metabolic competence (metabolism positive), Deisenroth Lab (AID 2284028)
# Method in brief: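 Chemicals (0.002–200 uM) were first incubated 2 h with alginate-immobilized phenobarbital/beta-naphthoflavone-induced male rat liver S9; conditioned medium then went onto VM7Luc4E2 cells for 24 h, with viability read by protease-substrate fluorescence, fitted bidirectionally.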
# [16] = read-out: Broad substrate specificity ATP-binding cassette transporter ABCG2 (Homo sapiens) (UniProt Q9UNQ0); test: CLD_ABCG2_24hr: CellzDirect (CLD) Gene Expression Assay for ABC Transporter (ABCG2) at 24 hours (AID 2283685);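 on AC50: AC50 is for induction meaning signal gain over DMSO vehicle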
# Method in brief: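 Primary human hepatocytes were dosed daily with ToxCast chemicals at multiple concentrations (vehicle 0.2% DMSO). ABCG2 mRNA was measured at 24 h by qNPA chemiluminescence; induction was scored as gain of signal versus DMSO.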
# [17] = CCTE_Shafer_MEA_dev_bursting_electrodes_number: CCTE's Neural Network Formation Assay for Number of Bursting Electrodes, Shafer Lab (AID 2284043);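 further: potency is for loss of bursting electrodes relative to DMSO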
# Method in brief: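 Read-out is the per-well number of electrodes bursting at least once every 2 minutes, recorded on days 5, 7, 9 and 12 and collapsed by trapezoidal area under the curve. Cultures were primary rat cortical neurons on MEA plates, treated continuously from plating.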
# [18] = tested on: frog Estrogen Receptor (ESR2), gene 100174814; test: ATG_frER2_XSP1: Attagene TRANS-FACTORIAL Multi-Species (XSP1) HepG2 Assay for frog Estrogen Receptor (ESR2) (AID 2283774)
# Method in brief: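 Transactivation of an exogenous receptor-Gal4 fusion is tracked in transfected HepG2 cells via induced reporter transcript levels. After 24 h treatment, RT-PCR with capillary electrophoresis quantifies signal gain over DMSO.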
# [19] = biological target: Estrogen receptor beta (Homo sapiens) (UniProt Q92731); test: ATG_hERb_XSP1: Attagene TRANS-FACTORIAL Multi-Species (XSP1) HepG2 Assay for human Estrogen Receptor (ESR2) (AID 2283788)
# Method in brief: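 Measured endpoint is transcriptional gain of signal from a GAL4-UAS reporter controlled by chimeric ERβ in HepG2 liver cells. Exposure lasts 24 h alongside 3 nM 6-alpha-fluorotestosterone, with DMSO as negative control.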
# [20] = biological target: zebrafish Thyroid Hormone Receptor alpha (TRa), thraa (gene 30670) (UniProt Q98867); test: ATG_zfTRa_XSP1: Attagene TRANS-FACTORIAL Multi-Species (XSP1) HepG2 Assay for zebrafish Thyroid Hormone Receptor alpha (TRa) (AID 2283807)
# Method in brief: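 HepG2 cells transiently transfected with GAL4-UAS reporter units including a zebrafish TRa–Gal4 chimera, dosed 24 h with 3 nM 6-alpha-fluorotestosterone present. Reporter mRNA quantified by RT-PCR and capillary electrophoresis; gain versus DMSO.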
compound,measurement,setting,value
OC(c1ccc(Cl)cc1)(c1cncnc1)c1ccccc1Cl (stereo not given),AC50,[1],active: 2.36 µM
same,AC50,[2],inconclusive: 100 µM
same,AC50,[3],inconclusive: 27.7 µM
same,AC50,[4],inconclusive: 100 µM
same,AC50,[5],inconclusive: 164 µM
same,AC50,[6],active: 25.4 µM
same,outcome,[7],inactive
COC(=O)c1ccccc1S(=O)(=O)NC(=O)N(C)c1nc(C)nc(OC)n1,outcome,[8],inactive
same,AC50,[9],inconclusive: 25 µM
same,outcome,[10],inactive
CCNc1nc(Cl)nc(NC(C)C)n1,outcome,[11],inactive
same,AC50,[12],inconclusive: 25 µM
same,outcome,[13],inactive
same,AC50,[14],active: 20 µM
same,AC50,[15],inconclusive: 27.4 µM
COP(=O)(OC)O/C(C)=C/C(=O)N(C)C,outcome,[16],inactive
same,AC50,[17],inconclusive: 0.0276 µM
CCC(C)n1c(=O)[nH]c(C)c(Br)c1=O (stereo not given),AC50,[16],inconclusive: 28.1 µM
CCCCC(CC)COC(=O)c1ccccc1C(=O)OCC(CC)CCCC (stereo not given),outcome,[18],inactive
same,AC50,[19],inconclusive: 1.32 µM
same,outcome,[2],inactive
same,AC50,[3],active: 47.8 µM
same,outcome,[20],inactive
same,AC50,[4],active: 100 µM
same,AC50,[5],active: 100 µM
same,AC50,[6],inconclusive: 62.1 µM
same,outcome,[15],inactive
COS(=O)(=O)OC,AC50,[13],inconclusive: 25 µM
N#Cc1c[nH]cc1-c1cccc2c1OC(F)(F)O2,AC50,[16],inconclusive: 20 µM
same,AC50,[7],active: 100 µM
CCOC(=O)Nc1cccc(OC(=O)Nc2ccccc2)c1,AC50,[11],inconclusive: 0.284 µM
O=C(O)C(F)(F)C(F)(F)C(F)(F)C(F)(F)C(F)(F)C(F)(F)C(F)(F)C(F)(F)F,AC50,[10],inconclusive: 6.46 µM
same,AC50,[17],inconclusive: 15 µM
CCOP(=S)(OCC)SCn1c(=O)oc2cc(Cl)ccc21,AC50,[18],inconclusive: 100 µM
same,AC50,[1],inconclusive: 100 µM
same,AC50,[19],inconclusive: 178 µM
same,AC50,[2],inconclusive: 100 µM
same,AC50,[3],inconclusive: 180 µM
same,AC50,[20],inconclusive: 164 µM
same,AC50,[5],active: 49.8 µM
CCOP(=O)(OCC)Oc1cc(C)nc(C(C)C)n1,AC50,[12],inconclusive: 25 µM
CCS(=O)(=O)c1cccnc1S(=O)(=O)NC(=O)Nc1nc(OC)cc(OC)n1,outcome,[9],inactive
same,outcome,[14],inactive
CS/C(C)=N/OC(=O)N(C)SN(C)C(=O)O/N=C(\C)SC,AC50,[14],inconclusive: 20 µM
COC(=O)N(OC)c1ccccc1COc1ccn(-c2ccc(Cl)cc2)n1,AC50,[8],inconclusive: 25 µM
same,outcome,[18],inactive
same,AC50,[1],inconclusive: 18.4 µM
same,AC50,[4],active: 3.33 µM
Cc1cc(C)nc(NC(=O)NS(=O)(=O)c2ccccc2C(=O)OC2COC2)n1,outcome,[8],inactive
same,AC50,[11],inconclusive: 25 µM
same,outcome,[9],inactive
ClC1=C(Cl)C2(Cl)C3C(Cl)C(Cl)CC3C1(Cl)C2(Cl)Cl (stereo not given),outcome,[10],inactive
same,AC50,[17],active: 7.54 µM
CC(C)(c1cc(Cl)c(O)c(Cl)c1)c1cc(Cl)c(O)c(Cl)c1,AC50,[19],inconclusive: 184 µM
same,AC50,[20],active: 17.9 µM
same,AC50,[6],inconclusive: 176 µM
c1cc2ccc3cccc4ccc(c1)c2c34,outcome,[13],inactive
same,AC50,[7],inconclusive: 0.16 µM
same,outcome,[15],inactive
CNC(=O)/C=C(\C)OP(=O)(OC)OC,AC50,[12],inconclusive: 25 µM

# Fetched one by one from the list above:
compound,measurement,setting,value
CCNc1nc(Cl)nc(NC(C)C)n1,AC50,[15],inconclusive: 27.4 µM
CCS(=O)(=O)c1cccnc1S(=O)(=O)NC(=O)Nc1nc(OC)cc(OC)n1,outcome,[9],inactive
CCOP(=S)(OCC)SCn1c(=O)oc2cc(Cl)ccc21,AC50,[1],inconclusive: 100 µM
